# Only a part is listed here, and it is no random draw. At the low end of the ranking, values are background and their order means little.
# Chains of the proteins cited; added tags and fusions are not shown. Lines headed by an entry give the natural chain unless they say otherwise; changes in a name come on top.
# UniProt O43186: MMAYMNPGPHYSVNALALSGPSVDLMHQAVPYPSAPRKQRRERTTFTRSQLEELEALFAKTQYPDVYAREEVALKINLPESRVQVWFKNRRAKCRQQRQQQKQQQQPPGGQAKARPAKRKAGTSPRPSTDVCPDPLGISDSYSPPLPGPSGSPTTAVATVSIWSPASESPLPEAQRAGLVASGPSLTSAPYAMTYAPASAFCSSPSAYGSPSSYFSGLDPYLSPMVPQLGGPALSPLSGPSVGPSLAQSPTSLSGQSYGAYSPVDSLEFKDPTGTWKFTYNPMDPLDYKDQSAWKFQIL
# Biological target: CRX (UniProt O43186)
# Assay: DAPPL (digital affinity profiling via proximity ligation, sequencing)
# Conditions: 10 mM Tris-HCl pH 7.5, 50 mM NaCl, 1 mM DTT, 4% glycerol, room temperature, 30 min; GST-TFs on glutathione beads, 16-mer random dsDNA library, 0.1% …; high values mean tight binding; double strand, one strand shown; scale: fold enrichment (6-mer frequency, TF over GST control)
row,Sequence,binding signal
1,TGCCCC,0.933
2,GTACCC,0.669
3,AAGTGT,0.994
4,ACGATA,1.26
5,TTTCCG,1.39
6,GTCTTG,0.846
7,CTGGAA,1.89
8,TCTGGT,1.33
9,CGAATG,1
10,ACAAAA,1.05
11,AGTGCC,0.705
12,GCGACA,0.724
13,CGGGCT,0.827
14,GGTATC,0.836
15,CTACAG,0.912
16,AACTCT,1.37
17,CCACCA,0.789
18,TTGAGG,1.02
19,TTGGCT,1.33
20,GCTCCG,1.07

# Looked up above:
# ACGATA | binding signal: 1.26
# GCTCCG | binding signal: 1.07
# TTGGCT | binding signal: 1.33

# Next part

row,Sequence,binding signal
1,GTACGC,0.803
2,TGGGCA,0.753
3,AACGCA,0.877
4,CAACGC,0.834
5,AGCAAA,1.05
6,TCATAC,1.02
7,CATGTA,0.903
8,GAAATT,1.08
9,AACCCT,1.39
10,GTCCCC,0.862
11,ACACTC,0.882
12,TGCCGA,0.952
13,ACCTCT,1.19
14,ATGCCG,0.9
15,GCAGCT,1
16,GCTAAC,0.945
17,CCGGTG,0.553
18,TCGCCG,0.923
19,CAAGTT,0.872
20,TCACTC,1.05

# From article PMC7862700
